{"sequences": {"note": "By UniProt entry, the sequences of proteins in these tests, tags left out. Residues count along the entry.", "UniProt P43220, residues 24-463": "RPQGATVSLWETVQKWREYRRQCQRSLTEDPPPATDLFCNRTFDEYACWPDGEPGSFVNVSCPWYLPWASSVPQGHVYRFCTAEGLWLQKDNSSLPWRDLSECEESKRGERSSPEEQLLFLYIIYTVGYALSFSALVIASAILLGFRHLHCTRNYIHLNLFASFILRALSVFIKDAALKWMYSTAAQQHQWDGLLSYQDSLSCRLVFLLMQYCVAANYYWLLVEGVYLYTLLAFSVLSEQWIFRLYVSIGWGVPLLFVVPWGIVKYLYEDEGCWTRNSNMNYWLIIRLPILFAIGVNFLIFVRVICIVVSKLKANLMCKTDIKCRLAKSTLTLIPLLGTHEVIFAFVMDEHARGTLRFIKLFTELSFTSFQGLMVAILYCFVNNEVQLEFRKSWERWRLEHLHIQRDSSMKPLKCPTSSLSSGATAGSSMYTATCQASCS", "UniProt P29066": "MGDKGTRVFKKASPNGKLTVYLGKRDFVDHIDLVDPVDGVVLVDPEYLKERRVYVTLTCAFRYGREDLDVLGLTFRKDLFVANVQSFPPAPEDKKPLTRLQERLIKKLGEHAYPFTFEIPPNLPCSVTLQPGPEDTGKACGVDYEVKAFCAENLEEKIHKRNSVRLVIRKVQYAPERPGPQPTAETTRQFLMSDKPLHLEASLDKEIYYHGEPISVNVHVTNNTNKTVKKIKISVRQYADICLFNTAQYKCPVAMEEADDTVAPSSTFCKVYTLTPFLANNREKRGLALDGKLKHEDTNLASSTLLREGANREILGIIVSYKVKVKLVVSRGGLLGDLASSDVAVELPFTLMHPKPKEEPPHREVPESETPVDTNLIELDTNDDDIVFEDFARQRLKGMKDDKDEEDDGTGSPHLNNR"}, "source": "paper doi:10.1101/2020.08.16.252585", "biological_target": "GLP-1R-Rluc8 (human) (UniProt P43220)", "test": "FRET or BRET", "note": "No constants are given. Whether binding was seen depends on the method and setting. In cells and extracts the contact can be indirect. Some binding calls cover weakened binding; strength is not graded here.", "data": [{"substance": "rat β-arrestin1-Venus (from UniProt P29066 1-418)", "values": [{"measurement": "binding", "result": "binds"}]}]}
